Among the data in publication PMC5955124 are binding values, retold here.

By UniProt entry, the sequences of proteins in these tests, tags left out. Residues count along the entry.
UniProt P08195, residues 102-630: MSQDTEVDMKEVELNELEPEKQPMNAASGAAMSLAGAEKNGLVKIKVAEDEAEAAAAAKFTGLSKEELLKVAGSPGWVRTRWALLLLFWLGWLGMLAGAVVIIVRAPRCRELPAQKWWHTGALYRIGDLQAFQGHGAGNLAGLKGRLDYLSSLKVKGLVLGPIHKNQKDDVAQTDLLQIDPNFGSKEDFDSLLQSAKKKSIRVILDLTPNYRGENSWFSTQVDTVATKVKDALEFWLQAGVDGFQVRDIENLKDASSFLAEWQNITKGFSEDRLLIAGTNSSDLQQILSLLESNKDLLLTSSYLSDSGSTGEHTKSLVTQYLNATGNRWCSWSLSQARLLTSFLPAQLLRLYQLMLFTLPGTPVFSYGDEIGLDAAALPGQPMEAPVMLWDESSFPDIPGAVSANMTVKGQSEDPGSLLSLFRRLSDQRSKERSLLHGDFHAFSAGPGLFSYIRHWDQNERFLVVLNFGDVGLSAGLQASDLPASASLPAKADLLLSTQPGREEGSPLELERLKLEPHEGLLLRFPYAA

These are yes or no findings as the source states them, for the method shown. In cells and extracts the contact can be indirect. Some binding calls cover weakened binding; strength is not graded here. Where a sequence is shown, tags or fusion partners need not be part of it.

The target in assay [1] is T1, histidine six-tagged PTPRJ (human) (UniProt Q12913).
T1 sequence: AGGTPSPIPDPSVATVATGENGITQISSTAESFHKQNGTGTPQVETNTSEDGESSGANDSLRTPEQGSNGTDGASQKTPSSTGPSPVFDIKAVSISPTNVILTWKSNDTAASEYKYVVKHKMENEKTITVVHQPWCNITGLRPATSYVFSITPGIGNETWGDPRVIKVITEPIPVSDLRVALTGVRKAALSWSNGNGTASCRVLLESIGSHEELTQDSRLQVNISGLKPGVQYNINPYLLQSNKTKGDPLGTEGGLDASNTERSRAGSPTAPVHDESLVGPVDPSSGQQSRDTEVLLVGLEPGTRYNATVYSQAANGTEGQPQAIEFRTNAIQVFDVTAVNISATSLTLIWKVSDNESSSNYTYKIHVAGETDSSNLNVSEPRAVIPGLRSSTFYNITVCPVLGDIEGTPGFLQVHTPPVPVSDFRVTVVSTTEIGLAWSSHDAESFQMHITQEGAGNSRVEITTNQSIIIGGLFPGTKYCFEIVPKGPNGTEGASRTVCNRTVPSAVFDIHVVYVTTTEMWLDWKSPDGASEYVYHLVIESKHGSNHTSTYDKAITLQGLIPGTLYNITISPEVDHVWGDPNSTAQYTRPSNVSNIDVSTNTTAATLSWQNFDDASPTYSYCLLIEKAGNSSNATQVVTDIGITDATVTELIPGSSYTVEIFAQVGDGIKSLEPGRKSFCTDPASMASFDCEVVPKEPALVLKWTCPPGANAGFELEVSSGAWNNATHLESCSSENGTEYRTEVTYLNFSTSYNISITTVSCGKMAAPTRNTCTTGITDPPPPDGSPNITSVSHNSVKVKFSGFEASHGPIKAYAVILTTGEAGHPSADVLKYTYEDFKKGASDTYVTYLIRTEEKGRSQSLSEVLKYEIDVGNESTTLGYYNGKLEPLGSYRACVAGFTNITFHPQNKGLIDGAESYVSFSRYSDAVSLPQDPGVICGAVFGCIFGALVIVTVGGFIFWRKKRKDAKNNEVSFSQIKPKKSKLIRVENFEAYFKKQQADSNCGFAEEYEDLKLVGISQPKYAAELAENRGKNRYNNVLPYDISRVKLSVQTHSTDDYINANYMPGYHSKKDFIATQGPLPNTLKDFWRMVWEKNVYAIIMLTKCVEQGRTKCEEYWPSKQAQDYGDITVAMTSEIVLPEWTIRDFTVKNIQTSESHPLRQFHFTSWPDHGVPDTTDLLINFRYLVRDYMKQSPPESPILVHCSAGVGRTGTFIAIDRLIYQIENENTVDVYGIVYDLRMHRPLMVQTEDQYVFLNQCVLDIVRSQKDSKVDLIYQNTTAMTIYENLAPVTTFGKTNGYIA
The experiment in a line: pull-down; called co-immunoprecipitation by the paper: PTPRJ-His6 captured on MagneHis poly(His)-avid magnetic beads from enriched membrane extracts of A549 cells 72 h after infection; blot with CD98hc antibody; control cells with untagged Ad PTPRJ.

Assay [2] deals with CD98hc (human (endogenous in A549)) (UniProt P08195). The experiment in a line: co-IP; total lysates (0.5% Igepal CA-630, 150 mM NaCl, 50 mM Tris-HCl pH 7.5) of A549 cells 24 h after infection with Ad PTPRJ at MOI30; immunoprecipitated with CD98hc antibody overnight at 4 C and protein A/G Plus-Agarose; blot with PTPRJ antibody; IgG as control.

Regarding CD98hc (from UniProt P08195 1-529), in assay [1], the binding entry is on record as “binds”.

B1: ectopic PTPRJ protein (wild-type PTPRJ cDNA, Ad PTPRJ) (receptor, UniProt Q12913 36-1337)
chain: T1 sequence
Consider B1, for which the binding result in assay [2] is reported as “binds”.
